Measurements reported in the supplement of paper PMC10849652.
The other results are listed elsewhere or left out.

Protein sequences, listed by entry. Tags and fused reporters are not part of them. Lines headed by an entry give the natural chain unless they say otherwise; changes in a name come on top.
UniProt Q8N4Q1: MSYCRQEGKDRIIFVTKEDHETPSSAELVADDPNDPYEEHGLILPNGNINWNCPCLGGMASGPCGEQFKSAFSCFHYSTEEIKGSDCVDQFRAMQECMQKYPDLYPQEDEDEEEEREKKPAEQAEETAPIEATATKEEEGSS
UniProt Q14011: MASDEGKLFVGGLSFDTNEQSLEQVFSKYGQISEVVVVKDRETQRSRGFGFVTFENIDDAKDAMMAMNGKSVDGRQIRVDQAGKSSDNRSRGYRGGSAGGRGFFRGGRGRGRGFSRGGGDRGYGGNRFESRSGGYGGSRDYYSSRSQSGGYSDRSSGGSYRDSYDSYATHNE
UniProt Q9NZ45: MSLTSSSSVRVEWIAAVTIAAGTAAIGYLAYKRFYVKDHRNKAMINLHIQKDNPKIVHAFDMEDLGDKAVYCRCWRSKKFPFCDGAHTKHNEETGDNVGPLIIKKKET
UniProt Q8IWX8: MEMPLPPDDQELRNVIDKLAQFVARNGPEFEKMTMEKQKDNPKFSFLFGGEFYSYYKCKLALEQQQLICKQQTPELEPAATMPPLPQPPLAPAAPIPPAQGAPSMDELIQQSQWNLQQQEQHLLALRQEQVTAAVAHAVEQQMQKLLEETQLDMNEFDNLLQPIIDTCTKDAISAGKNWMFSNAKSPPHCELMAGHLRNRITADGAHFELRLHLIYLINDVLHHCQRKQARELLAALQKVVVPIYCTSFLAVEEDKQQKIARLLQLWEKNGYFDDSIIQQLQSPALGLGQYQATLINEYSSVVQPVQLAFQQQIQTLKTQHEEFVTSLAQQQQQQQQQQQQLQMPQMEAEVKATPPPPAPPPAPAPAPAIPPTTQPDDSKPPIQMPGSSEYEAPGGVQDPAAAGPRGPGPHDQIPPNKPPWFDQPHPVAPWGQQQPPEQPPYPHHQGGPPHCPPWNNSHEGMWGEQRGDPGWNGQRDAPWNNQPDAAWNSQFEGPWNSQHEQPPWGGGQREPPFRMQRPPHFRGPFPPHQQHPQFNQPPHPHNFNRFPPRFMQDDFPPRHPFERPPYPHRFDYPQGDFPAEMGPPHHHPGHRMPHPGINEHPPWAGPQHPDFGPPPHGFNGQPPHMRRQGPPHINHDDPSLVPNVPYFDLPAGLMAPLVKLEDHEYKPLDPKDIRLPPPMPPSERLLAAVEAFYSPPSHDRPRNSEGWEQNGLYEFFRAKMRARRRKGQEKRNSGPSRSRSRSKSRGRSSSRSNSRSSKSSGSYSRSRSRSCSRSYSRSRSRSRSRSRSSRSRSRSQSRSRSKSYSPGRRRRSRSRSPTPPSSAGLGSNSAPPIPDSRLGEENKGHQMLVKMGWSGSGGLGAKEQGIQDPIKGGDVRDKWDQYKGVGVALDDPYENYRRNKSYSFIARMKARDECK
UniProt Q7LBR1: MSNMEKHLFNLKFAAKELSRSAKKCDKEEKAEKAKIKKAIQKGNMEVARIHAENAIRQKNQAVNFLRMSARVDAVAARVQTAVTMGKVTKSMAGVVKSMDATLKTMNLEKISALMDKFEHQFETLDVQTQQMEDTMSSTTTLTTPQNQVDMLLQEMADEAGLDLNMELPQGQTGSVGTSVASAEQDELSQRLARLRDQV
UniProt Q9NRG0: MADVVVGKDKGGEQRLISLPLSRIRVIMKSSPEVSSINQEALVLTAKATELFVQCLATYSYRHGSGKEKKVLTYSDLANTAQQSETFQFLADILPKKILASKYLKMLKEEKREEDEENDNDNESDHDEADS
UniProt P12277: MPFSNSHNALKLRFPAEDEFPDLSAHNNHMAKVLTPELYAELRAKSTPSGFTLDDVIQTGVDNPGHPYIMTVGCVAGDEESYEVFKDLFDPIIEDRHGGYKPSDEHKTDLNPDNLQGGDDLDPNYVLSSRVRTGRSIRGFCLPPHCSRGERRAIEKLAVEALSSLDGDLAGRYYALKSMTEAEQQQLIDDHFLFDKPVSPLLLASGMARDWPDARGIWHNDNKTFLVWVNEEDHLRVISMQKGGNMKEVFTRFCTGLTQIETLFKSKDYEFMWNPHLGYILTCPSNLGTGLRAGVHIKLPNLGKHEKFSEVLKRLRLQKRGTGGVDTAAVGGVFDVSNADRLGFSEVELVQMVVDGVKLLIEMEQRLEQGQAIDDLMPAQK
UniProt Q96DG6: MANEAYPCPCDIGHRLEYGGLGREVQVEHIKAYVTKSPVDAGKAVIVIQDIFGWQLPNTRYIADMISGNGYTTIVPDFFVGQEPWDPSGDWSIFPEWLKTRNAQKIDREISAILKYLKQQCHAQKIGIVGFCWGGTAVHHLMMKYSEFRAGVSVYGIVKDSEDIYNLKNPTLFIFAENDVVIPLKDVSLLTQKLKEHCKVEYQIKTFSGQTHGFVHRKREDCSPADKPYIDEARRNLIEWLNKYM
UniProt Q7Z7K0: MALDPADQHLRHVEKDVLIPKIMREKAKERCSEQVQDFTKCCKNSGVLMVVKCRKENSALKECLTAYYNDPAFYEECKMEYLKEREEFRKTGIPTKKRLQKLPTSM
UniProt Q8NFW8: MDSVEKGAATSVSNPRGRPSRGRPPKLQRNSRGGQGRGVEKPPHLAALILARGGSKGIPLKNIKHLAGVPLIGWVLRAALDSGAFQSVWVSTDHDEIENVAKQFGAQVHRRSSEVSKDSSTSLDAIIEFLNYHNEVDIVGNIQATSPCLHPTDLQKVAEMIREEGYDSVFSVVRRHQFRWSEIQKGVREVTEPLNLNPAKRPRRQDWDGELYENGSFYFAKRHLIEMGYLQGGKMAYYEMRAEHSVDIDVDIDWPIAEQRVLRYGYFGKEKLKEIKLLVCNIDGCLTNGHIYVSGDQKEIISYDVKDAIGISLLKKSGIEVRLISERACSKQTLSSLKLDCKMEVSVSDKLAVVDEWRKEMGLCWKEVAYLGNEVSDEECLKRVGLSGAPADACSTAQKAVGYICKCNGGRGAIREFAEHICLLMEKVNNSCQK
UniProt Q8WWK9: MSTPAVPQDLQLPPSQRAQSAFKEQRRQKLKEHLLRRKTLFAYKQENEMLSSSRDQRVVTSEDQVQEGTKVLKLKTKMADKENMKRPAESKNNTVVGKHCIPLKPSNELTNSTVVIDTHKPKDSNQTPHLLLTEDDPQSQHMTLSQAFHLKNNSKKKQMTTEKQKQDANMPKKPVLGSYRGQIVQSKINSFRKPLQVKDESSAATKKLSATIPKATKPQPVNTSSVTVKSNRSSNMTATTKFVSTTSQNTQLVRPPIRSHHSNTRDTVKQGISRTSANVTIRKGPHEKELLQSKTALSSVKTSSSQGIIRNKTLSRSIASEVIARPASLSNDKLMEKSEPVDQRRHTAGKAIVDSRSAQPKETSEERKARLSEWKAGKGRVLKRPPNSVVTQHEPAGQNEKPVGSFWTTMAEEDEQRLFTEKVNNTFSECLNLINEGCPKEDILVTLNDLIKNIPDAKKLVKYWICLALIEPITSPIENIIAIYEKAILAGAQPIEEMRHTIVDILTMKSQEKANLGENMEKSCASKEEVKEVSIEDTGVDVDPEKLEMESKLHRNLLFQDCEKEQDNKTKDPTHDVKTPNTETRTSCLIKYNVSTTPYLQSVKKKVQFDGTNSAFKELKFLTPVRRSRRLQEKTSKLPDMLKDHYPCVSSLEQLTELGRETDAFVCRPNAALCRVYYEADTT
UniProt Q96MX0: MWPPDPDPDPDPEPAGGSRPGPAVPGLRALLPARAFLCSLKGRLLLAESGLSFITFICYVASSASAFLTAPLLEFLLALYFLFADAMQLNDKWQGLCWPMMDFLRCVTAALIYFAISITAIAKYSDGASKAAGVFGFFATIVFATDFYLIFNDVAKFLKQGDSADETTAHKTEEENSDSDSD
UniProt O76071: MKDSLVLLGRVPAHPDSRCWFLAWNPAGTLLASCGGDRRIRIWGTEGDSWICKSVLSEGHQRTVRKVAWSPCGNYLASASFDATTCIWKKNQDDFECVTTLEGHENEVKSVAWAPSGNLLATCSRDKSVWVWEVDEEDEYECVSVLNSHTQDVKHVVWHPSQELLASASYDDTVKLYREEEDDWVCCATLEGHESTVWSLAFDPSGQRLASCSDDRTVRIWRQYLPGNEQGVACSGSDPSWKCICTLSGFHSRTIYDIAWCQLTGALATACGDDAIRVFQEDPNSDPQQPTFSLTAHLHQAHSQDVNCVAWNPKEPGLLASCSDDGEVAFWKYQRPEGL
UniProt P0CG13, whole entry, looked up: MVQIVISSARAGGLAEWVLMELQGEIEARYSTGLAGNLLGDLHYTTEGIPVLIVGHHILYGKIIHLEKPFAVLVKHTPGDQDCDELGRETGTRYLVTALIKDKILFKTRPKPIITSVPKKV
UniProt Q9H444: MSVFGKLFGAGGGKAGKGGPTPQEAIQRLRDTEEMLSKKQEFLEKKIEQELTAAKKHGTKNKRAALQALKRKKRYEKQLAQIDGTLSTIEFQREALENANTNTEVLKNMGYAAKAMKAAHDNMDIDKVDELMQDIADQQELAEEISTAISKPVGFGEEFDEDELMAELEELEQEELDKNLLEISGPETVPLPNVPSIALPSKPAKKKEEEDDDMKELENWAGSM
UniProt Q5EBM0: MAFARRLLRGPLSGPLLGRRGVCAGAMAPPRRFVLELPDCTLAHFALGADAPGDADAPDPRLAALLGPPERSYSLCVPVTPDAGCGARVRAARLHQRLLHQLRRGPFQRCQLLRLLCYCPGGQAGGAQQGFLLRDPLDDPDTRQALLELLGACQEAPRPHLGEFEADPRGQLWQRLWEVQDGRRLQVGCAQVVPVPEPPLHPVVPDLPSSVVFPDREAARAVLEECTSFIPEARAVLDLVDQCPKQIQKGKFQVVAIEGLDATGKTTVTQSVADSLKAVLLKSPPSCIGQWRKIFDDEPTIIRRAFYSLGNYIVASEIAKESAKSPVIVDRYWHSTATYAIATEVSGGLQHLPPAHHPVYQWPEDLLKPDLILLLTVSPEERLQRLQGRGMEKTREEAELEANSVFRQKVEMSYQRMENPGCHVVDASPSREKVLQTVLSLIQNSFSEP

Legend:
Assay in all cases: log2 fold change, soluble protein after heating vs DMSO (PISA); higher = thermal stabilisation; K562 lysate, 10 uM; active = over 0.2 and 3.5 SD of the protein, either way, in both replicates (recomputed)
lapatinib = compound: CS(=O)(=O)CCNCc1ccc(-c2ccc3ncnc(Nc4ccc(OCc5cccc(F)c5)c(Cl)c4)c3c2)o1 [lapatinib]
How it was run: (§1)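 Thermal stability, expressed as log-two fold change relative to solvent controls, is given from duplicates. Crude K562 extract in PBS pH 7.4 with 1 mM MgCl2, at 1 mg/mL protein, was treated with 10 μM compound for 30 min and heated in aliquots for 3 min across 48°C-58°C. After pooling, adjustment to 0.5% NP-40 at 4°C and centrifugation at 21,000xg for 90 min, supernatant protein was measured by TMTpro 16plex LC-MS/MS with channel sums equalised.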

pictilisib = compound: CS(=O)(=O)N1CCN(Cc2cc3nc(-c4cccc5[nH]ncc45)nc(N4CCOCC4)c3s2)CC1 [pictilisib]
How it was run: as §1

crizotinib = compound: C[C@@H](Oc1cc(-c2cnn(C3CCNCC3)c2)cnc1N)c1c(Cl)ccc(F)c1Cl [crizotinib]
How it was run: as §1

[1] = compound: C[C@H](C1=CC=C(C=C1)C(=O)NC2=C3C=CNC3=NC=C2)N
How it was run: as §1

duvelisib = compound: C[C@H](Nc1ncnc2nc[nH]c12)c1cc2cccc(Cl)c2c(=O)n1-c1ccccc1 [duvelisib]
How it was run: as §1

gandotinib = compound: Cc1cc(Nc2cc(CN3CCOCC3)c3nc(C)c(Cc4ccc(Cl)cc4F)n3n2)n[nH]1 [gandotinib]
How it was run: as §1

tozasertib = compound: Cc1cc(Nc2cc(N3CCN(C)CC3)nc(Sc3ccc(NC(=O)C4CC4)cc3)n2)n[nH]1 [tozasertib]
How it was run: as §1

doramapimod = compound: Cc1ccc(-n2nc(C(C)(C)C)cc2NC(=O)Nc2ccc(OCCN3CCOCC3)c3ccccc23)cc1 [doramapimod]
How it was run: as §1

bafetinib = compound: Cc1ccc(NC(=O)c2ccc(CN3CC[C@H](N(C)C)C3)c(C(F)(F)F)c2)cc1Nc1nccc(-c2cncnc2)n1 [bafetinib]
How it was run: as §1

[2] = compound: Cc1cccc(CC(=O)N2CCc3c2ccc(-c2cn(C)c4ncnc(N)c24)c3F)n1
How it was run: as §1

nilotinib = compound: Cc1cn(-c2cc(NC(=O)c3ccc(C)c(Nc4nccc(-c5cccnc5)n4)c3)cc(C(F)(F)F)c2)cn1 [nilotinib]
How it was run: as §1

[3] = compound: Cc1nc(Nc2n[nH]c3c2CN(C(=O)N[C@H](CN(C)C)c2ccccc2)C3(C)C)c2sccc2n1
How it was run: as §1

dasatinib = compound: Cc1nc(Nc2ncc(C(=O)Nc3c(C)cccc3Cl)s2)cc(N2CCN(CCO)CC2)n1 [dasatinib]
How it was run: as §1

[4] = compound: Cc1ncc(-c2ccnc(Nc3ccc(S(C)(=O)=O)cc3)n2)n1C(C)C
How it was run: as §1

[5] = compound: Cn1cc(-c2ccc3c(c2)CCN3C(=O)Cc2cccc(C(F)(F)F)c2)c2c(N)ncnc21
How it was run: as §1

quisinostat = compound: Cn1cc(CNCC2CCN(c3ncc(C(=O)NO)cn3)CC2)c2ccccc21 [quisinostat]
How it was run: as §1

tipifarnib = compound: Cn1cncc1[C@@](N)(c1ccc(Cl)cc1)c1ccc2c(c1)c(-c1cccc(Cl)c1)cc(=O)n2C [tipifarnib]
How it was run: as §1

[6] = compound: NC(=O)Nc1cc(-c2cccc(F)c2)sc1C(=O)N[C@H]1CCCNC1
How it was run: as §1

[7] = compound: NC(=O)c1cnc(N[C@@H]2CCCC[C@@H]2N)nc1Nc1cccc(-n2nccn2)c1
How it was run: as §1

[8] = compound: NC1(c2ccc(-c3nc4ccn5c(=O)[nH]nc5c4cc3-c3ccccc3)cc2)CCC1
How it was run: as §1

Measured: log2 fold change

CHCHD4 isoform 2 (UniProt Q8N4Q1)
inactive: lapatinib 0.045 | pictilisib 0.092 | crizotinib -0.085 | [1] -0.316 | duvelisib 0.022 | gandotinib 0.217 | tozasertib -0.041 | doramapimod 0.047 | bafetinib -0.029 | [2] 0.198 | nilotinib -0.029 | [3] 0.023 | dasatinib -0.035 | [4] -0.031 | [5] -0.018 | quisinostat -0.156 | tipifarnib 0.018 | [6] 0.032 | [7] -0.008 | [8] -0.028

CIRBP (UniProt Q14011)
inactive: lapatinib 0.006 | pictilisib -0.018 | crizotinib 0 | [1] 0.006 | duvelisib 0.018 | gandotinib 0.041 | tozasertib -0.044 | doramapimod -0.025 | bafetinib -0.023 | [2] -0.05 | nilotinib 0 | [3] 0.027 | dasatinib -0.044 | [4] 0.02 | [5] 0.019 | quisinostat 0.028 | tipifarnib -0.024 | [6] -0.007 | [7] -0.014 | [8] 0.018

CISD1 (UniProt Q9NZ45)
inactive: lapatinib 0.007 | pictilisib 0 | crizotinib -0.047 | [1] -0.106 | duvelisib 0.043 | gandotinib 0.13 | tozasertib -0.012 | doramapimod -0.002 | bafetinib 0.086 | [2] 0.064 | nilotinib 0.014 | [3] -0.022 | dasatinib -0.048 | [4] 0.02 | [5] -0.021 | quisinostat 0.031 | tipifarnib -0.009 | [6] -0.01 | [7] -0.007 | [8] 0.005

CHERP (UniProt Q8IWX8)
inactive: lapatinib 0.034 | pictilisib -0.008 | crizotinib 0.006 | [1] 0.02 | duvelisib 0 | gandotinib -0.026 | tozasertib 0.006 | doramapimod 0.024 | bafetinib 0.001 | [2] 0.005 | nilotinib -0.019 | [3] 0.011 | dasatinib -0.046 | [4] -0.016 | [5] 0.013 | quisinostat -0.05 | tipifarnib -0.017 | [6] 0.015 | [7] 0.017 | [8] 0.044

CHMP1B (UniProt Q7LBR1)
inactive: lapatinib -0.054 | pictilisib -0.012 | crizotinib 0.037 | [1] 0.028 | duvelisib 0.05 | gandotinib -0.007 | tozasertib 0.012 | doramapimod 0.035 | bafetinib 0.069 | [2] -0.041 | nilotinib -0.102 | [3] -0.004 | dasatinib 0.005 | [4] -0.028 | [5] 0 | quisinostat -0.005 | tipifarnib -0.011 | [6] -0.015 | [7] 0.048 | [8] 0.007

CHRAC1 (UniProt Q9NRG0)
inactive: lapatinib -0.029 | pictilisib -0.022 | crizotinib 0.019 | [1] -0.027 | duvelisib 0.045 | gandotinib -0.025 | tozasertib 0.03 | doramapimod -0.046 | bafetinib 0.035 | [2] 0.032 | nilotinib 0.025 | [3] -0.064 | dasatinib -0.061 | [4] -0.032 | [5] 0.04 | quisinostat 0.032 | tipifarnib 0.079 | [6] 0.021 | [7] 0.027 | [8] 0.111

Quoted from the entries so far (four entries):
CIRBP (UniProt Q14011)
inactive: lapatinib 0.006 | pictilisib -0.018 | crizotinib 0 | [1] 0.006 | duvelisib 0.018 | gandotinib 0.041 | tozasertib -0.044 | doramapimod -0.025 | bafetinib -0.023 | [2] -0.05 | nilotinib 0 | [3] 0.027 | dasatinib -0.044 | [4] 0.02 | [5] 0.019 | quisinostat 0.028 | tipifarnib -0.024 | [6] -0.007 | [7] -0.014 | [8] 0.018

CISD1 (UniProt Q9NZ45)
inactive: lapatinib 0.007 | pictilisib 0 | crizotinib -0.047 | [1] -0.106 | duvelisib 0.043 | gandotinib 0.13 | tozasertib -0.012 | doramapimod -0.002 | bafetinib 0.086 | [2] 0.064 | nilotinib 0.014 | [3] -0.022 | dasatinib -0.048 | [4] 0.02 | [5] -0.021 | quisinostat 0.031 | tipifarnib -0.009 | [6] -0.01 | [7] -0.007 | [8] 0.005

CHERP (UniProt Q8IWX8)
inactive: lapatinib 0.034 | pictilisib -0.008 | crizotinib 0.006 | [1] 0.02 | duvelisib 0 | gandotinib -0.026 | tozasertib 0.006 | doramapimod 0.024 | bafetinib 0.001 | [2] 0.005 | nilotinib -0.019 | [3] 0.011 | dasatinib -0.046 | [4] -0.016 | [5] 0.013 | quisinostat -0.05 | tipifarnib -0.017 | [6] 0.015 | [7] 0.017 | [8] 0.044

CHMP1B (UniProt Q7LBR1)
inactive: lapatinib -0.054 | pictilisib -0.012 | crizotinib 0.037 | [1] 0.028 | duvelisib 0.05 | gandotinib -0.007 | tozasertib 0.012 | doramapimod 0.035 | bafetinib 0.069 | [2] -0.041 | nilotinib -0.102 | [3] -0.004 | dasatinib 0.005 | [4] -0.028 | [5] 0 | quisinostat -0.005 | tipifarnib -0.011 | [6] -0.015 | [7] 0.048 | [8] 0.007

More records.

CKB (UniProt P12277)
inactive: lapatinib -0.003 | pictilisib 0.008 | crizotinib -0.02 | [1] 0.068 | duvelisib -0.008 | gandotinib -0.069 | tozasertib 0 | doramapimod -0.017 | bafetinib -0.025 | [2] -0.01 | nilotinib -0.013 | [3] -0.017 | dasatinib -0.051 | [4] 0.001 | [5] 0 | quisinostat 0.035 | tipifarnib 0.018 | [6] 0.031 | [7] -0.013 | [8] 0.008

CMBL (UniProt Q96DG6)
inactive: lapatinib -0.024 | pictilisib 0.076 | crizotinib 0.065 | [1] -0.162 | duvelisib 0.031 | gandotinib 0.127 | tozasertib 0.016 | doramapimod -0.021 | bafetinib -0.028 | [2] -0.001 | nilotinib -0.029 | [3] 0.054 | dasatinib 0.155 | [4] 0.006 | [5] -0.025 | quisinostat -0.047 | tipifarnib -0.001 | [6] -0.027 | [7] -0.023 | [8] 0.149

CMC1 (UniProt Q7Z7K0)
inactive: lapatinib -0.007 | pictilisib 0.058 | crizotinib 0.029 | [1] 0.001 | duvelisib 0.098 | gandotinib -0.017 | tozasertib 0.066 | doramapimod 0.038 | bafetinib 0.103 | [2] 0.118 | nilotinib -0.077 | [3] -0.059 | dasatinib 0.057 | [4] -0.107 | [5] -0.016 | quisinostat -0.038 | tipifarnib 0.027 | [6] -0.027 | [7] 0.006 | [8] -0.027

CMAS (UniProt Q8NFW8)
inactive: lapatinib -0.015 | pictilisib -0.006 | crizotinib -0.005 | [1] -0.069 | duvelisib -0.025 | gandotinib 0.018 | tozasertib -0.035 | doramapimod -0.009 | bafetinib -0.047 | [2] 0.022 | nilotinib 0.005 | [3] 0.018 | dasatinib -0.012 | [4] 0.031 | [5] 0 | quisinostat -0.006 | tipifarnib -0.007 | [6] 0.039 | [7] -0.011 | [8] -0.061

CKAP2 (UniProt Q8WWK9)
inactive: lapatinib -0.004 | pictilisib -0.02 | crizotinib -0.027 | [1] 0.064 | duvelisib 0.016 | gandotinib 0.016 | tozasertib 0.034 | doramapimod -0.001 | bafetinib 0.019 | [2] -0.009 | nilotinib 0.075 | [3] 0.07 | dasatinib 0.004 | [4] 0.036 | [5] -0.014 | quisinostat -0.098 | tipifarnib -0.053 | [6] -0.015 | [7] -0.049 | [8] -0.023

CMTM3 (UniProt Q96MX0)
inactive: lapatinib -0.027 | pictilisib 0.029 | crizotinib -0.069 | [1] 0.023 | duvelisib -0.052 | gandotinib 0.016 | tozasertib 0.042 | doramapimod 0.025 | bafetinib -0.057 | [2] -0.059 | nilotinib 0.07 | [3] 0.048 | dasatinib 0.05 | [4] 0.144 | [5] 0.015 | quisinostat 0.023 | tipifarnib -0.111 | [6] -0.115 | [7] -0.055 | [8] -0.026

CIAO1 (UniProt O76071)
inactive: lapatinib 0.01 | pictilisib -0.062 | crizotinib -0.05 | [1] 0.003 | duvelisib 0.023 | gandotinib 0.024 | tozasertib 0.048 | doramapimod 0.086 | bafetinib -0.044 | [2] -0.019 | nilotinib 0.024 | [3] -0.009 | dasatinib -0.027 | [4] 0.051 | [5] -0.038 | quisinostat 0.003 | tipifarnib -0.023 | [6] -0.053 | [7] 0.006 | [8] -0.027

CHTF8 (UniProt P0CG13)
inactive: lapatinib 0.073 | pictilisib 0.069 | crizotinib -0.054 | [1] 0.059 | duvelisib -0.065 | gandotinib 0.007 | tozasertib -0.107 | doramapimod -0.032 | bafetinib 0.022 | [2] -0.001 | nilotinib 0.021 | [3] 0.062 | dasatinib 0.049 | [4] -0.068 | [5] -0.024 | quisinostat 0.031 | tipifarnib 0.049 | [6] 0.052 | [7] -0.026 | [8] 0.122

CHMP4B (UniProt Q9H444)
inactive: lapatinib 0.047 | pictilisib 0.025 | crizotinib 0.132 | [1] 0.01 | duvelisib -0.023 | gandotinib 0.008 | tozasertib -0.002 | doramapimod 0 | bafetinib 0.026 | [2] -0.034 | nilotinib -0.078 | [3] 0.024 | dasatinib 0.031 | [4] -0.01 | [5] 0.005 | quisinostat 0.124 | tipifarnib 0.043 | [6] -0.055 | [7] 0.001 | [8] 0.014

CMPK2 (UniProt Q5EBM0)
inactive: lapatinib 0.065 | pictilisib 0 | crizotinib 0.007 | [1] -0.074 | duvelisib 0.043 | gandotinib 0.008 | tozasertib 0.018 | doramapimod -0.01 | bafetinib -0.061 | [2] 0.056 | nilotinib -0.075 | [3] -0.01 | dasatinib -0.067 | [4] 0.005 | [5] -0.011 | quisinostat -0.02 | tipifarnib 0.042 | [6] 0.032 | [7] -0.006 | [8] 0.013
